# Earlier results, collected in patent US12150919B2 (priority 2023, dated 2024).
# Settings: water at acidic and neutral pH; cited from earlier work
compound,measurement,value
"COc1cc(/C=C/C(=O)CC(=O)/C=C/c2ccc(O)c(OC)c2)ccc1O [Curcumin, (1E,6E)-1,7-bis(4-hydroxy-3′-methoxyphenyl)-1,6-heptadiene-3,5-dione]",solubility in water,< 0.1 µg/mL
